We go through one sequence from publication PMC8384837.

Changes are numbered by the printed parent chain. The list shows a part of the results.

What all share (details): yeast three-hybrid, YBZ-1, SC-Leu-His + 0.5 mM 3-AT, 4 days
The target of assay [1] is T1, PUM1 PUF domain R5-DHS C1007D + R1008H + Q1011S (Homo sapiens) (UniProt Q14671).
T1 sequence: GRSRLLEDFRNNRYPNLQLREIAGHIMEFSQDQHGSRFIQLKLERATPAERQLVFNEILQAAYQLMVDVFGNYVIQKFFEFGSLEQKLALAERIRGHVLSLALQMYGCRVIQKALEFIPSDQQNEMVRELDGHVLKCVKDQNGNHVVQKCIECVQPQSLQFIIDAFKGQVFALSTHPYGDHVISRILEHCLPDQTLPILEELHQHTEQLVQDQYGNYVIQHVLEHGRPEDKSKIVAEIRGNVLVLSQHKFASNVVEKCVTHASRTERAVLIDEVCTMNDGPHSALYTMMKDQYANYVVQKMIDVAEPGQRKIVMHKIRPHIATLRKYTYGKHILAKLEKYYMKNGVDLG

Assay [2] addresses T2, PUM1 PUF domain R5-DYF C1007D + R1008Y + Q1011F (Homo sapiens) (UniProt Q14671).
T2 sequence: T1 sequence with H181Y, S184F

Assay [3] deals with T3, PUM1 PUF domain R5-KDR C1007K + R1008D + Q1011R (Homo sapiens) (UniProt Q14671).
T3 sequence: T1 sequence with D180K, H181D, S184R

For assay [4], the target named is T4, PUM1 PUF domain R5-KTC C1007K + R1008T + Q1011C (Homo sapiens) (UniProt Q14671).
T4 sequence: T1 sequence with D180K, H181T, S184C

The target of assay [5] is T5, PUM1 PUF domain R5-MKC C1007M + R1008K + Q1011C (Homo sapiens) (UniProt Q14671).
T5 sequence: T1 sequence with D180M, H181K, S184C

Assay [6] deals with T6, PUM1 PUF domain R5-NGR C1007N + R1008G + Q1011R (Homo sapiens) (UniProt Q14671).
T6 sequence: T1 sequence with D180N, H181G, S184R

Assay [7] concerns the target T7, PUM1 PUF domain R5-QLV C1007Q + R1008L + Q1011V (Homo sapiens) (UniProt Q14671).
T7 sequence: T1 sequence with D180Q, H181L, S184V

The target of assay [8] is T8, PUM1 PUF domain R5-QRW C1007Q + Q1011W (Homo sapiens) (UniProt Q14671).
T8 sequence: T1 sequence with D180Q, H181R, S184W

Assay [9] addresses T9, PUM1 PUF domain R5-RAI C1007R + R1008A + Q1011I (Homo sapiens) (UniProt Q14671).
T9 sequence: T1 sequence with D180R, H181A, S184I

The target of assay [10] is T10, PUM1 PUF domain R5-RGS C1007R + R1008G + Q1011S (Homo sapiens) (UniProt Q14671).
T10 sequence: T1 sequence with D180R, H181G

In assay [11] the target is T11, PUM1 PUF domain R5-RLQ C1007R + R1008L (Homo sapiens) (UniProt Q14671).
T11 sequence: T1 sequence with D180R, H181L, S184Q

The target in assay [12] is T12, PUM1 PUF domain R5-RMG C1007R + R1008M + Q1011G (Homo sapiens) (UniProt Q14671).
T12 sequence: T1 sequence with D180R, H181M, S184G

Assay [13] concerns the target T13, PUM1 PUF domain R5-RMS C1007R + R1008M + Q1011S (Homo sapiens) (UniProt Q14671).
T13 sequence: T1 sequence with D180R, H181M

For assay [14], the target named is T14, PUM1 PUF domain R5-SAP C1007S + R1008A + Q1011P (Homo sapiens) (UniProt Q14671).
T14 sequence: T1 sequence with D180S, H181A, S184P

Assay [15] deals with T15, PUM1 PUF domain R5-SGG C1007S + R1008G + Q1011G (Homo sapiens) (UniProt Q14671).
T15 sequence: T1 sequence with D180S, H181G, S184G

The target of assay [16] is T16, PUM1 PUF domain R5-SQS C1007S + R1008Q + Q1011S (Homo sapiens) (UniProt Q14671).
T16 sequence: T1 sequence with D180S, H181Q

For assay [17], the target named is T17, PUM1 PUF domain R5-SSR C1007S + R1008S + Q1011R (Homo sapiens) (UniProt Q14671).
T17 sequence: T1 sequence with D180S, H181S, S184R

For assay [18], the target named is T18, PUM1 PUF domain R5-SVG C1007S + R1008V + Q1011G (Homo sapiens) (UniProt Q14671).
T18 sequence: T1 sequence with D180S, H181V, S184G

The target of assay [19] is T19, PUM1 PUF domain R5-SVS C1007S + R1008V + Q1011S (Homo sapiens) (UniProt Q14671).
T19 sequence: T1 sequence with D180S, H181V

Assay [20] deals with T20, PUM1 PUF domain R5-TGR C1007T + R1008G + Q1011R (Homo sapiens) (UniProt Q14671).
T20 sequence: T1 sequence with D180T, H181G, S184R

Consider “GGCUAGAACUAGUGGAUCCCCCGGCGCCCGGCGGCUCGAGCCCGGGUAAGUGUAAAUAGUCUGCAUGCCGCCGGGCGCCAUGCCUGCAGGUCGACUCUAGAAAACAUG”, for which the binding signal (log2 enrichment (interaction score)) in assay [1] was -1.79; in assay [2] it was -1.57; in [3] it was -1.62; in assay [4], -1.88; in assay [5] it was -1.63; in assay [6] it was -1.74. The binding signal (log2 enrichment (interaction score)) in assay [7] was -1.65; in assay [8], -1.48; in [9], -1.52; in [10] it was -1.92; in [11] it was -1.54; in assay [12], -1.91. The binding signal (log2 enrichment (interaction score)) in [13] was -1.65; in assay [14] it was -1.46; in assay [15], -1.6; in assay [16], -1.64; in assay [17], -1.5; in assay [18] it was -2.03. In addition, the binding signal (log2 enrichment (interaction score)) in assay [19] is -1.58; in [20] it was -1.84.
